For test [1], the target named is T1, human PD-1 extracellular region with the transmembrane and intracellular regions of murine CD28, expressed on HEK-293T cells (wild type) (human; mouse) (UniProt Q15116+P31041). The test can be described thus: antibody binding analysis on HEK 293T cells expressing PD-1 and its single-residue mutants.
Test [2] addresses T1, human PD-1 extracellular region with the transmembrane and intracellular regions of murine CD28, expressed on HEK-293T cells (wild type) (human; mouse). The test can be described thus: flow cytometry on transfected HEK-293T cells.

Chains of the proteins cited; added tags and fusions are not shown. Lines headed by an entry give the natural chain unless they say otherwise; changes in a name come on top.
UniProt Q15116: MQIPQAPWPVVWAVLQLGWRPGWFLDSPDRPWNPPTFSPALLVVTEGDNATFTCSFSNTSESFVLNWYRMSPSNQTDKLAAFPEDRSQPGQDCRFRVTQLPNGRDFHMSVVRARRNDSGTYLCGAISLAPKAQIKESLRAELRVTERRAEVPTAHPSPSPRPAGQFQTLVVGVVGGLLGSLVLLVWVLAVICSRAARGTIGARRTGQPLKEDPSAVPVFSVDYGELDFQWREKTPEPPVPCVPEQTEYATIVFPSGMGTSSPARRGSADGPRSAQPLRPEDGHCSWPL
UniProt P31041: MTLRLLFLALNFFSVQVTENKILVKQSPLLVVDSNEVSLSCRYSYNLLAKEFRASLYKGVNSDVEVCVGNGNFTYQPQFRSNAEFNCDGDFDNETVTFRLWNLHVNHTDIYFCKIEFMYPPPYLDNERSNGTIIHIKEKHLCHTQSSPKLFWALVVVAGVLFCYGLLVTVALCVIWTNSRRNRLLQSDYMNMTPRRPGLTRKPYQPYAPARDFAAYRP

No constants are given. Whether binding was seen depends on the method and setting. Some results given as binding are weak or reduced against the parent protein; the word gives no strength.

B1: Clone 2 anti-PD-1 antibody (antibody, V domains shown)
VH: QVQLQQPGAELVKPGASVKLSCKASGYTFTTYYLYWVRQRPGQGLEWIGGINPSNGGTNFNEKFKSKATLTVDKSSSTAYMQLNSLTSEDSAVYYCTRRDYRYDRGFDYWGQGTSVTV
VL: DIVLTQSPASLAVSLGQRATISCRASKSVSTSGFNYIHWYQQKPGQPPKLLIYLASNLESGVPARFSGSGSGTDFTLNIHPVEDEDAATYYCQHSRELPLTFGAGTKLEIK
Turning to B1, in test [1], the binding result was “binds”.

B2: Clone 10 anti-PD-1 antibody (antibody, IgG1, V domains shown)
VH: DVQLQESGPGLVKPSQSLSLTCTVTGYSITSDYAWNWIRQFPGNKLEWMGYINYSGSTSYNPSLKSRISITRDTSKNQFFLQLNSVTTEDTATYYCARWIGSSAWYFDVWGAGTTVTV
VL: DVLMTQTPLSLPVSLGDQASISCRSGQNIVHSNGNTYLEWYLQKPGQSPKLLIYKVSNRFFGVPDRISGSGSGTDFTLKISRVEAEDLGVYFCFQGSHVPFTFGSGTKLEIK
Regarding B2, the binding result in test [2] and in test [1] was “binds” in each case.

B3: Clone 19 anti-PD-1 antibody (antibody, IgG1, V domains shown)
VH: QVQLQQSGAELVKPGASVKMSCKAFGYTFTTYPIEWMKQNHGKSLEWIGNFHPYNDDTKYNEKFKGKAKLTVEKSSTTVYLELSRLTSDDSAVYYCARENYGSHGGFVYWGQGTLVTV
VL: ENVLTQSPAIMSASPGEKVTMTCRASSSVISSYLHWYQQKSGASPKLWIYSTSNLASGVPDRFSGSGSGTSYSLTISSVEAEDAATYYCQQYNGYPLTFGAGTKLEIK
With B3, in test [2], the binding result is recorded as “binds”.

The values above are taken from patent US20110171220A1.
